No constants are given. Whether binding was seen depends on the method and setting. For some of these results: Binding seen in cells or lysates may run through a third protein. Some results given as binding are weak or reduced against the parent protein; the word gives no strength. Where a sequence is shown, tags or fusion partners need not be part of it.
Legend:
recombinant BMP4 (rBMP4) [1] = target: T1, recombinant BMP4 (rBMP4) (mouse, UniProt P21275 293-408, limits assumed); experiment: ELISA; co-immunoprecipitation
T1 sequence (looked up): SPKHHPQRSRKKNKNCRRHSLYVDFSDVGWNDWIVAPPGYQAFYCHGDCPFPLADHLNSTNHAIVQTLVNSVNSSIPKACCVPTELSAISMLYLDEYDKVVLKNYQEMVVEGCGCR

recombinant BMP4 (rBMP4) [2] = target: T1, recombinant BMP4 (rBMP4); experiment: ELISA with FLAG (M2) antibody (FIG. 7A); also pull-down on M2 beads, silver-stained gel (FIG. 7B)
recombinant BMP4 (rBMP4) [3] = target: T1, recombinant BMP4 (rBMP4); experiment: ELISA and pull-down (retold)
recombinant BMP4 (rBMP4) [4] = target: T1, recombinant BMP4 (rBMP4); experiment: ELISA with FLAG (M2) antibody (FIG. 19A); also pull-down on M2-beads (FIG. 19B)

Measured: binding

B1: mouse recombinant Olfml3-FLAG tagged protein (rOlfml3-FLAG) (other, not shown: small tags and cut ends)
chain: QQHHLVEYMERRLAALEERLAQCQDQSSRHAAELRDFKNKMLPLLEVAEKERETLRTEADSISGRVDRLEREVDYLETQNPALPCVELDEKVTGGPGAKGKGRRNEKYDMVTDCSYTVAQVRSMKILKRFGGSVGLWTKDPLGPAEKIYVLDGTQNDTAFVFPRLRDFTLAMAARKASRIRVPFPWVGTGQLVYGGFLYYARRPPGGPGGGGELENTLQLIKFHLANRTVVDSSVFPAESLIPPYGLTADTYIDLAADEEGLWAVYATRDDDRHLCLAKLDPQTLDTEQQWDTPCPRENAEAAFVICGTLYVVYNTRPASRARIQCSFDASGTLAPERAALSYFPRRYGAHASLRYNPRERQLYAWDDGYQIVYKLEMKKKEEEV
binds: all assays above

Source: US20130034493A1 (RESEARCH DEVELOPMENT FOUNDATION, published 2013)
